In publication PMC11483813 (Inorganic Chemistry, 2024):

Assays:
A549 cells = test: Intracellular distribution, confocal colocalization; type: cell-based, human; details: 1 μM, 1 h
[1] = general procedure: Fmoc solid-phase peptide synthesis; aminomethyl ChemMatrix (0.69 mmol/g) with Fmoc-Rink-amide linker; DIC/Oxyma; details: whole synthesis, 220 nm

Compound: COC(=O)/C=C/c1ccc(-c2nccc3c4ccccc4n(C)c23)nc1.[Cl-].[Ir+3].[c-]1ccccc1-c1ccccn1.[c-]1ccccc1-c1ccccn1 [Ir-Me]
- Pearson correlation coefficient (PCC) with LysoTracker Green DND-26 (A549 cells; lysosomes): 0.599
- Pearson correlation coefficient (PCC) with MitoView Green (A549 cells; mitochondria): 0.832

Compound: Ir-Gln-Arg-Leu-Gly-Asn-Gln-Trp-Ala-Val-Gly-His-Leu-Leu-NH 2 [Ir-BN]
- final HPLC purity [1]: >99%
